# Reference: patent US20250195520A1, “COMBINATION THERAPY USING A PTPN11 INHIBITOR AND AN EGFR INHIBITOR” (NAVIRE PHARMA, INC., priority 2021, published 2025)
# Some of these results come from one statement about several compounds together.
# Tested on: DUSP6 mRNA in HCC827-ER1 tumors
# Assay: In vivo pharmacodynamic assay, Taqman qRT-PCR of DUSP6 in HCC827-ER1 xenograft tumors
# Parameters: species or system mouse
# Conditions: 24-hour after formula (10b) dosing (18-hour after osimertinib)
# Description: In vivo modeling, treatment and data analysis. […] Dosing started ˜3 weeks after the subcutaneous implantation of the tumor cells. Dosing volume was 5 mL/kg for each compound, and was adjusted based on individual mouse weight. Dosing and sample harvesting followed the schedule below. There was a 6-hour interval between the morning dose and the afternoon dose, and tumor/plasma samples were harvested at three timepoints during the 24-hour dosing cycle.
structure (smiles),measurement,value
"Cc1c(N2CCC3(CC2)CO[C@@H](C)[C@H]3N)nc(C)n(-c2cccc(Cl)c2Cl)c1=O (atropisomer, axis not shown; (Ra)) [Formula (10b), 6-((3S,4S)-4-amino-3-methyl-2-oxa-8-azaspiro[4.5]decan-8-yl)-3-(Ra)-(2,3-dichlorophenyl)-2,5-dimethylpyrimidin-4 (3H)-one]",suppression of DUSP6 mRNA levels,less than 50%
